One may read the AC50 as the concentration giving half of the maximal activity seen.

The assay in a line: qHTS Assay for Lipid Storage Modulators in Drosophila S3 Cells.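 On cell number change: cells counted by Cell Tracker Red CMTPX staining in the red channel.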 To be noted: BODIPY lipid droplet fluorescence, 18-24 h; for cell number change: measured here: cell count max response, cells fed with added oleic acid. The procedure, abridged:
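Drosophila S3 cells loaded with oleic acid (400 uM, as added) and compounds at several concentrations; lipid droplets imaged by 488-nm laser-scanning cytometry, 500–530 nm intensity and object ratio to cell channel. Percent activity normalized to 20 uM Triacsin C.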
For orientation: In qHTS, concentration-response curves come from the screen itself.

Where [1] appears, read: measured here: lipid fluorescence (Fed channel) AC50, cells fed with added oleic acid.
Where [2] appears, read: measured here: cell number channel AC50, cells fed with added oleic acid.

Structures are written as SMILES. The list shows a part of the results. Shown are side measurements of this screen, not its main read-out; they come without a call. The list favours compounds with an active or inconclusive main result. Words in brackets tell the shape of the fitted curve; partial curves, single points and poor fits give uncertain potencies.

Take `O=C(Nc1ccccc1O)c1ccc(Cl)cc1`: the cell number change is -15.9%. Moreover, the AC50 under setting [1] is 16.4 µM [falling, single point].
Take `O=C(NCc1ccccc1)C1Cc2ccccc2CN1C(=O)c1ccco1` (stereo unspecified): the cell number change was -23.1%. Besides, the AC50 under setting [2] is 0.00517 µM [falling, full curve, poor fit]. Further, the AC50 under setting [1] was 0.00461 µM [falling, full curve, poor fit].
With `COC(=O)CSc1ncnc2c1cnn2Cc1ccccc1`, the cell number change worked out at 13.6%. Further, the concentration at half-maximal activity (AC50) under setting [1] was 0.0326 µM [falling, full curve, poor fit].
As for `Cc1cc2nc(SCCOC(=O)Nc3ccc(Cl)cc3)nc(C)c2cc1C`, the cell number change was 24%.
As for `CCOC(=O)/C=C1\CN(Cc2cc(OC)c(OC)c(OC)c2)S(=O)(=O)c2ccc(C(F)(F)F)cc21`, the cell number change came to 10.2%.
Turning to `Cc1cc(NC(=O)CSc2nc3c([nH]c4ccccc43)c(=O)n2-c2ccccc2F)no1`, the cell number change worked out at 15%.
For `O=C(CSc1nc2ccccc2c(=O)n1-c1ccc(F)cc1F)Nc1ccc2c(c1)CCC2`, the cell number change was 35.8%. For the same compound, the AC50 under setting [2] was 3.66 µM [rising, full curve]. Further, the AC50 under setting [1] was 7.31 µM [falling, partial curve].
In the case of `CCOC(=O)c1cc(-c2ccc(C#N)cc2)nc2c1c(C)nn2CCC#N`, under setting [1], the AC50 is 4.11 µM [rising, full curve].
Take `Oc1[nH]c2ccc(Br)cc2c1N=Nc1ccc(C(F)(F)F)cn1`: the cell number change was -2.44%. Also, under setting [2], the AC50 was 0.58 µM [rising, full curve].
Take `CCCC1=Nc2cc(C(=O)NCCN3CCOCC3)ccc2Sc2ccc(C)cc21`: the cell number change is 9.16%.
Consider `Cc1ccc(S(=O)(=O)N(C)CCCC(=O)Nc2cc(C)ccc2C)cc1`, for which the cell number change is 30.3%. Also, under setting [2], the AC50 is 0.13 µM [rising, full curve, poor fit]. For the same compound, the AC50 under setting [1] is 6.51 µM [rising, single point].
For the compound `CC(=O)Nc1ccc(NC(=O)c2c(C)nn(Cc3ccccc3Cl)c2C)cc1`, the AC50 under setting [1] is 10.3 µM [rising, partial curve, poor fit].
Regarding `CC(=O)NCCOc1c(C)cc(S(N)(=O)=O)cc1C`, the cell number change was -27.5%. The half-maximal activity concentration (AC50) under setting [2] was 4.11 µM [falling, full curve, poor fit]. The AC50 under setting [1] is 29.1 µM [falling, single point].
Turning to `COc1ccc(N=Cc2c(O)cc(C)oc2=O)cc1`, the cell number change was -8.31%. For the same compound, the AC50 under setting [1] was 0.116 µM [falling, single point].
As to `CN(C)c1ccc(N/C=C/C(=O)c2ccc(F)cc2)cc1`, the cell number change is 100%. In addition, the AC50 under setting [2] is 16.4 µM [rising, partial curve]. Besides, under setting [1], the AC50 is 11.6 µM [rising, partial curve].
On to `COc1ccc(C(=O)c2coc3c2C(=O)C(=O)c2ccccc2-3)cc1`, for which the cell number change is -68.6%. Besides, the AC50 under setting [2] is 23.1 µM [falling, single point]. Also, under setting [1], the AC50 was 29.1 µM [falling, single point].
With `COc1cc2cc(CCCOC(=O)c3ccco3)oc(=O)c2cc1OC`, the cell number change is -14.9%. Besides, the AC50 under setting [2] is 1.16 µM [falling, single point]. Moreover, the AC50 under setting [1] is 1.16 µM [falling, single point].
`CCOC(=O)C(NC(C)=O)(Nc1cccc(F)c1)C(F)(F)F` (stereo unspecified): under setting [1], the concentration at half-maximal activity (AC50) was 2.31 µM [falling, full curve].
In the case of `COc1ccc2nc(N3CCN(C(=O)c4ccc([N+](=O)[O-])o4)CC3)sc2c1`, the AC50 under setting [1] was 1.84 µM [falling, partial curve].
On to `Cn1cc(C(CO)Cc2ccccc2)c2ccccc21` (stereo unspecified), for which the cell number change was -24.1%. Also, under setting [2], the AC50 is 0.00461 µM [falling, full curve, poor fit]. Besides, under setting [1], the AC50 was 23.1 µM [rising, single point].
Consider `Cc1nc(N2CCN(c3ccccc3)CC2)nc2c1C(=O)CC(C)C2` (stereo unspecified), for which the cell number change amounted to 8.06%. For the same compound, the AC50 under setting [1] is 0.206 µM [rising, full curve, poor fit].
With `O=C1CSc2ccc(S(=O)(=O)NCc3ccc(F)cc3)cc2N1`, under setting [1], the AC50 is 6.51 µM [rising, single point].
As for `CC(=O)c1cccc(NC(=O)c2cc(-c3ccco3)nc3ccccc23)c1`, the cell number change came out at 11.1%.
For `O=C(CSc1nc2nn(-c3ccccc3)c(=O)c-2c2n1CCCCC2)Nc1ccccc1[N+](=O)[O-]`, the AC50 under setting [1] is 0.103 µM [falling, full curve, poor fit].
With `Cc1ccsc1C(=O)NCCc1ccc(S(N)(=O)=O)cc1`, the cell number change amounted to 13.5%.
For the compound `Cc1ccc(C(=O)Nc2ccc(S(=O)(=O)N3CCc4ccccc43)cc2)o1`, the cell number change is -11.8%. Moreover, the AC50 under setting [1] was 29.1 µM [rising, partial curve, poor fit].
As to `Cc1ccc(/C=N/NC(=O)c2ccc(N(C)S(=O)(=O)c3ccccc3)cc2)cc1`, the cell number change is 10%. Also, the AC50 under setting [1] is 6.51 µM [falling, partial curve, poor fit].
For the compound `COc1ccc(OC)c(S(=O)(=O)N(C)CC(=O)O)c1`, the cell number change came out at 7.83%. For the same compound, the AC50 under setting [1] was 3.26 µM [rising, single point].
On to `O=C(Cn1cnc2c(oc3nc4c(cc32)CCCC4)c1=O)Nc1ccccc1`, for which the AC50 under setting [1] was 16.4 µM [rising, single point].
With `O=C(N/N=C/c1ccc(-c2cccc([N+](=O)[O-])c2)o1)[C@H]1C[C@@H]1c1ccccc1`, the cell number change stood at 19.9%. Moreover, under setting [1], the AC50 was 5.17 µM [rising, single point].
In the case of `O=S(=O)(NCCCN1CCOCC1)c1ccc(Cl)s1`, the cell number change was -5.68%. For the same compound, the AC50 under setting [1] is 0.082 µM [falling, full curve, poor fit].
As to `COC(=O)Cn1c2ccc(F)cc2c2nc(C)sc21`, the cell number change amounted to 3.13%. Also, the AC50 under setting [2] is 0.13 µM [falling, full curve, poor fit]. Under setting [1], the AC50 was 0.092 µM [falling, full curve, poor fit].
As for `Cc1cc(-c2ccc(C)c(S(=O)(=O)N3CC(=O)Nc4ccccc43)c2)on1`, under setting [1], the concentration at half-maximal activity (AC50) is 1.46 µM [falling, full curve].
Consider `CCOc1cccc(CN2CCN(CCCc3ccccc3)C(CCO)C2)c1O` (stereo unspecified), for which the cell number change is -14.2%. Also, under setting [1], the AC50 was 5.8 µM [falling, full curve].
As for `CCOc1ccc(NC(=S)NNc2ccnc3cc(Cl)ccc23)cc1`, the cell number change was found to be 90.1%. Moreover, the AC50 under setting [2] is 4.11 µM [rising, full curve, poor fit]. Also, the AC50 under setting [1] is 29.1 µM [rising, partial curve, poor fit].
Take `CCOc1ccc(S(=O)(=O)N(C)C)cc1-c1nc2c(C(C)(C)C)nn(C)c2c(=O)[nH]1`: the AC50 was 2.91 µM [rising, partial curve] under setting [2] and 0.58 µM [rising, single point] under setting [1].
In the case of `NC1=NC(c2ccc(F)cc2)n2c(nc3ccccc32)N1` (stereo unspecified), the cell number change is 0.97%. Further, the AC50 under setting [1] was 5.8 µM [falling, single point].
Take `COc1ccc(OC)c2[nH]c(=O)c(CCNC(=O)COc3ccccc3)cc12`: the cell number change is -18.7%. Moreover, under setting [1], the AC50 is 29.1 µM [falling, single point].
For `Cc1ccc2ncccc2c1NC(=S)NC(=O)c1ccccc1`, the cell number change was 21%.
Take `CCOC(=O)C(C)Oc1ccc(=O)n(-c2ccccc2)n1` (stereo unspecified): the cell number change amounted to 23%.
With `CN1C(=O)CC(N2CCC(C(N)=O)(N3CCCCC3)CC2)C1=O` (stereo unspecified), the cell number change is -19.1%. In addition, under setting [2], the concentration at half-maximal activity (AC50) was 0.0259 µM [falling, full curve, poor fit]. Moreover, under setting [1], the AC50 is 16.4 µM [falling, partial curve].
Turning to `CN1CCN(C(=S)NC(=O)c2ccccc2Br)CC1`, the cell number change was -21.8%. The AC50 under setting [1] is 29.1 µM [falling, single point].
With `CCc1cccc(Nc2c([N+](=O)[O-])cc(C(=O)N3CC(=O)Nc4ccccc43)cc2[N+](=O)[O-])c1`, the cell number change was -5.63%.
For the compound `CCCCN1c2ccccc2N(CCCO)c2cc(C)nnc21`, the cell number change was 34.4%. For the same compound, the AC50 under setting [2] was 14.6 µM [rising, partial curve]. In addition, under setting [1], the AC50 is 9.2 µM [rising, partial curve].
On to `Cc1cc(=O)oc2cc(OCc3nnc(-c4ccccc4Br)o3)ccc12`, for which the cell number change is -10.1%. The half-maximal activity concentration (AC50) under setting [1] is 7.31 µM [falling, single point].
In the case of `CC(=O)c1c(C)[nH]c(C(=O)OC(C)C(=O)Nc2cc(S(=O)(=O)N3CCCCC3)ccc2Cl)c1C` (stereo unspecified), the cell number change is -2.1%. Moreover, the AC50 under setting [1] was 2.06 µM [rising, single point].
Regarding `CSc1ccccc1OCc1cc(C(=O)N(C)C2CCCc3ccccc32)no1` (stereo unspecified), the cell number change was -27.7%. In addition, the AC50 under setting [1] is 9.2 µM [falling, partial curve].
With `Cc1ccc(C(C(=O)NC(C)(C)C)N(C(=O)CCC(=O)Nc2ccccn2)c2ccccc2F)cc1` (stereo unspecified), the cell number change is -25.2%.
As for `Cc1cccc(N2CCN(C(=O)C3CCC(CNS(=O)(=O)c4cccs4)CC3)CC2)c1C` (stereo unspecified), the cell number change is -26.2%.
Regarding `Cc1ccc(-c2csc3ncnc(SCC(=O)Nc4nnc(C)s4)c23)cc1`, the cell number change was 12.5%. Moreover, the AC50 under setting [2] is 3.26 µM [rising, single point].
As for `Cc1cccc(C)c1Nc1nnc(SCC(=O)Nc2cc(S(=O)(=O)N3CCCCC3)ccc2Cl)s1`, the cell number change was 2.39%. Moreover, the AC50 under setting [1] is 1.3 µM [rising, full curve, poor fit].
`CCN(CC)S(=O)(=O)c1cc(-c2nnc(-c3ccc(Br)cc3)o2)ccc1Cl`: the cell number change was -9.99%. In addition, under setting [1], the AC50 was 0.517 µM [rising, full curve].
Turning to `Cn1cccc1/C=N/n1c(-c2ccc(C(C)(C)C)cc2)n[nH]c1=S`, the cell number change is -50.5%. In addition, the AC50 under setting [2] is 29.1 µM [falling, single point]. For the same compound, the AC50 under setting [1] was 29.1 µM [falling, single point].
For `CC(C)(C)N1CC(c2nc3ccccc3n2Cc2ccccc2)CC1=O` (stereo unspecified), the AC50 under setting [1] is 29.1 µM [rising, single point].
For `C=CCNCCOCCSc1ccc(Cl)cc1`, the cell number change turned out to be 1.38%. Besides, the AC50 under setting [1] is 2.06 µM [rising, single point].
With `CC(C)=CCCC(C)CN(C)CCc1ccccn1` (stereo unspecified), the AC50 under setting [1] is 5.8 µM [falling, single point].
`COCCN1C(=O)c2ccccc2C(C(=O)NCCCN2CCCC2)C1c1c[nH]c2ccccc12` (stereo unspecified): the cell number change is 21.1%. Also, the AC50 under setting [1] was 1.84 µM [rising, full curve, poor fit].
For `NC(N)=N/N=C/c1ccc(OCc2ccc(Cl)cc2)cc1`, the cell number change was -85.6%. Also, the AC50 under setting [2] is 20.6 µM [falling, partial curve]. Also, the AC50 under setting [1] was 23.1 µM [falling, single point].
With `C/C(CC(=O)NCc1ccco1)=N\NC(=O)c1ccc([N+](=O)[O-])cc1Cl`, the cell number change was determined as 23.9%. Also, the AC50 under setting [1] was 29.1 µM [falling, single point].

Source of the values: PubChem BioAssay AID2685 (National Center for Advancing Translational Sciences (NCATS), 2010).
